# Numbering of substitutions follows the chain as printed. No constants are given. Whether binding was seen depends on the method and setting. Some results given as binding are weak or reduced against the parent protein; the word gives no strength.
# Sequences of proteins named here, by UniProt entry; tags and fusion partners are left off. A change or cut given only in a name is not applied to a line headed by its entry. A line that says so, or that is headed by a name, gives the form on record, which may keep a tag or linker.
# 재조합 인간 메소텔린 (recombinant human mesothelin) (Q13421, form named): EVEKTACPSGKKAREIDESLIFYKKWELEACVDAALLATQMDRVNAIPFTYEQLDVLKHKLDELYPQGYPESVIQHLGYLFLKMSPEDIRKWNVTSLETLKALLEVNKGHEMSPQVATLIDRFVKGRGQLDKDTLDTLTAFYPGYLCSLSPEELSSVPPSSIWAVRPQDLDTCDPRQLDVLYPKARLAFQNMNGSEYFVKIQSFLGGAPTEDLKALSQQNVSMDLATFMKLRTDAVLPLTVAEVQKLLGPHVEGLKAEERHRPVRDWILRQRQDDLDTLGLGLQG
# B1: C2G4 scFv 단백질 (scFv)
# scFv: EVQLLESGGGLVQPGGSLRLSCAASGFTFSNYAMSWVRQAPGKGLEWVSGIPPDSGSKYYADSVRGRFTVSRDNSKNTLYLQMNSLRAEDTAVYYCAKNMLSFDYWGQGTLVTVSSGGGGSGGGGSGGGGSQSVLTQPPSASGTPGQRVTISCTGSSSNIGSNAVSWYQQLPGTAPKLLIYYNSKRPSGVPDRFSGSKSGTSASLAISGLRSEDEADYYCGSWDPSLNGYVFGGGTKVTVLG
# B2: MS501 scFv 단백질 (scFv)
# scFv: EVQLLESGGGLVQPGGSLRLSCAASGFTFSNYAMSWVRQAPGKGLEWVSGIYPDSGSTYYADSVKGRFTISRDNSKNTLYLQMNSLRAEDTAVYYCARNIYTFDYWGQGTLVTVSSGGGGSGGGGSGGGGSQSVLTQPPSASGTPGQRVTISCSGSSSNIGSNAVSWYQQLPGTAPKLLIYYNNQRPSGVPDRFSGSKSGTSASLAISGLRSEDEADYYCGSWDSSLSGYVFGGGTKLTVLG
# B3: MS503 scFv 단백질 (scFv)
# scFv: B2 scFv with G50S, D54G, S55D, R98K, I100A, Y101F, N184S, Q185H, S222T
# Biological target: 재조합 인간 메소텔린 (recombinant human mesothelin) (human) (UniProt Q13421)
# Assay: ELISA; scFv coated at 200 ng/ml, rhMSLN at 100 ng/ml, detection antibody and streptavidin-HRP
row,binding,Binder
1,binds,B1
2,binds,B2
3,binds,B3
